Experimental data as given in PMC3789764.
The exact form of at least one protein or probe is not confirmed. At least one result comes from cells or an extract, where the contact may be indirect.

Sequences of proteins named here, by UniProt entry; tags and fusion partners are left off. A change or cut given only in a name is not applied to a line headed by its entry.
UniProt P78527, whole entry: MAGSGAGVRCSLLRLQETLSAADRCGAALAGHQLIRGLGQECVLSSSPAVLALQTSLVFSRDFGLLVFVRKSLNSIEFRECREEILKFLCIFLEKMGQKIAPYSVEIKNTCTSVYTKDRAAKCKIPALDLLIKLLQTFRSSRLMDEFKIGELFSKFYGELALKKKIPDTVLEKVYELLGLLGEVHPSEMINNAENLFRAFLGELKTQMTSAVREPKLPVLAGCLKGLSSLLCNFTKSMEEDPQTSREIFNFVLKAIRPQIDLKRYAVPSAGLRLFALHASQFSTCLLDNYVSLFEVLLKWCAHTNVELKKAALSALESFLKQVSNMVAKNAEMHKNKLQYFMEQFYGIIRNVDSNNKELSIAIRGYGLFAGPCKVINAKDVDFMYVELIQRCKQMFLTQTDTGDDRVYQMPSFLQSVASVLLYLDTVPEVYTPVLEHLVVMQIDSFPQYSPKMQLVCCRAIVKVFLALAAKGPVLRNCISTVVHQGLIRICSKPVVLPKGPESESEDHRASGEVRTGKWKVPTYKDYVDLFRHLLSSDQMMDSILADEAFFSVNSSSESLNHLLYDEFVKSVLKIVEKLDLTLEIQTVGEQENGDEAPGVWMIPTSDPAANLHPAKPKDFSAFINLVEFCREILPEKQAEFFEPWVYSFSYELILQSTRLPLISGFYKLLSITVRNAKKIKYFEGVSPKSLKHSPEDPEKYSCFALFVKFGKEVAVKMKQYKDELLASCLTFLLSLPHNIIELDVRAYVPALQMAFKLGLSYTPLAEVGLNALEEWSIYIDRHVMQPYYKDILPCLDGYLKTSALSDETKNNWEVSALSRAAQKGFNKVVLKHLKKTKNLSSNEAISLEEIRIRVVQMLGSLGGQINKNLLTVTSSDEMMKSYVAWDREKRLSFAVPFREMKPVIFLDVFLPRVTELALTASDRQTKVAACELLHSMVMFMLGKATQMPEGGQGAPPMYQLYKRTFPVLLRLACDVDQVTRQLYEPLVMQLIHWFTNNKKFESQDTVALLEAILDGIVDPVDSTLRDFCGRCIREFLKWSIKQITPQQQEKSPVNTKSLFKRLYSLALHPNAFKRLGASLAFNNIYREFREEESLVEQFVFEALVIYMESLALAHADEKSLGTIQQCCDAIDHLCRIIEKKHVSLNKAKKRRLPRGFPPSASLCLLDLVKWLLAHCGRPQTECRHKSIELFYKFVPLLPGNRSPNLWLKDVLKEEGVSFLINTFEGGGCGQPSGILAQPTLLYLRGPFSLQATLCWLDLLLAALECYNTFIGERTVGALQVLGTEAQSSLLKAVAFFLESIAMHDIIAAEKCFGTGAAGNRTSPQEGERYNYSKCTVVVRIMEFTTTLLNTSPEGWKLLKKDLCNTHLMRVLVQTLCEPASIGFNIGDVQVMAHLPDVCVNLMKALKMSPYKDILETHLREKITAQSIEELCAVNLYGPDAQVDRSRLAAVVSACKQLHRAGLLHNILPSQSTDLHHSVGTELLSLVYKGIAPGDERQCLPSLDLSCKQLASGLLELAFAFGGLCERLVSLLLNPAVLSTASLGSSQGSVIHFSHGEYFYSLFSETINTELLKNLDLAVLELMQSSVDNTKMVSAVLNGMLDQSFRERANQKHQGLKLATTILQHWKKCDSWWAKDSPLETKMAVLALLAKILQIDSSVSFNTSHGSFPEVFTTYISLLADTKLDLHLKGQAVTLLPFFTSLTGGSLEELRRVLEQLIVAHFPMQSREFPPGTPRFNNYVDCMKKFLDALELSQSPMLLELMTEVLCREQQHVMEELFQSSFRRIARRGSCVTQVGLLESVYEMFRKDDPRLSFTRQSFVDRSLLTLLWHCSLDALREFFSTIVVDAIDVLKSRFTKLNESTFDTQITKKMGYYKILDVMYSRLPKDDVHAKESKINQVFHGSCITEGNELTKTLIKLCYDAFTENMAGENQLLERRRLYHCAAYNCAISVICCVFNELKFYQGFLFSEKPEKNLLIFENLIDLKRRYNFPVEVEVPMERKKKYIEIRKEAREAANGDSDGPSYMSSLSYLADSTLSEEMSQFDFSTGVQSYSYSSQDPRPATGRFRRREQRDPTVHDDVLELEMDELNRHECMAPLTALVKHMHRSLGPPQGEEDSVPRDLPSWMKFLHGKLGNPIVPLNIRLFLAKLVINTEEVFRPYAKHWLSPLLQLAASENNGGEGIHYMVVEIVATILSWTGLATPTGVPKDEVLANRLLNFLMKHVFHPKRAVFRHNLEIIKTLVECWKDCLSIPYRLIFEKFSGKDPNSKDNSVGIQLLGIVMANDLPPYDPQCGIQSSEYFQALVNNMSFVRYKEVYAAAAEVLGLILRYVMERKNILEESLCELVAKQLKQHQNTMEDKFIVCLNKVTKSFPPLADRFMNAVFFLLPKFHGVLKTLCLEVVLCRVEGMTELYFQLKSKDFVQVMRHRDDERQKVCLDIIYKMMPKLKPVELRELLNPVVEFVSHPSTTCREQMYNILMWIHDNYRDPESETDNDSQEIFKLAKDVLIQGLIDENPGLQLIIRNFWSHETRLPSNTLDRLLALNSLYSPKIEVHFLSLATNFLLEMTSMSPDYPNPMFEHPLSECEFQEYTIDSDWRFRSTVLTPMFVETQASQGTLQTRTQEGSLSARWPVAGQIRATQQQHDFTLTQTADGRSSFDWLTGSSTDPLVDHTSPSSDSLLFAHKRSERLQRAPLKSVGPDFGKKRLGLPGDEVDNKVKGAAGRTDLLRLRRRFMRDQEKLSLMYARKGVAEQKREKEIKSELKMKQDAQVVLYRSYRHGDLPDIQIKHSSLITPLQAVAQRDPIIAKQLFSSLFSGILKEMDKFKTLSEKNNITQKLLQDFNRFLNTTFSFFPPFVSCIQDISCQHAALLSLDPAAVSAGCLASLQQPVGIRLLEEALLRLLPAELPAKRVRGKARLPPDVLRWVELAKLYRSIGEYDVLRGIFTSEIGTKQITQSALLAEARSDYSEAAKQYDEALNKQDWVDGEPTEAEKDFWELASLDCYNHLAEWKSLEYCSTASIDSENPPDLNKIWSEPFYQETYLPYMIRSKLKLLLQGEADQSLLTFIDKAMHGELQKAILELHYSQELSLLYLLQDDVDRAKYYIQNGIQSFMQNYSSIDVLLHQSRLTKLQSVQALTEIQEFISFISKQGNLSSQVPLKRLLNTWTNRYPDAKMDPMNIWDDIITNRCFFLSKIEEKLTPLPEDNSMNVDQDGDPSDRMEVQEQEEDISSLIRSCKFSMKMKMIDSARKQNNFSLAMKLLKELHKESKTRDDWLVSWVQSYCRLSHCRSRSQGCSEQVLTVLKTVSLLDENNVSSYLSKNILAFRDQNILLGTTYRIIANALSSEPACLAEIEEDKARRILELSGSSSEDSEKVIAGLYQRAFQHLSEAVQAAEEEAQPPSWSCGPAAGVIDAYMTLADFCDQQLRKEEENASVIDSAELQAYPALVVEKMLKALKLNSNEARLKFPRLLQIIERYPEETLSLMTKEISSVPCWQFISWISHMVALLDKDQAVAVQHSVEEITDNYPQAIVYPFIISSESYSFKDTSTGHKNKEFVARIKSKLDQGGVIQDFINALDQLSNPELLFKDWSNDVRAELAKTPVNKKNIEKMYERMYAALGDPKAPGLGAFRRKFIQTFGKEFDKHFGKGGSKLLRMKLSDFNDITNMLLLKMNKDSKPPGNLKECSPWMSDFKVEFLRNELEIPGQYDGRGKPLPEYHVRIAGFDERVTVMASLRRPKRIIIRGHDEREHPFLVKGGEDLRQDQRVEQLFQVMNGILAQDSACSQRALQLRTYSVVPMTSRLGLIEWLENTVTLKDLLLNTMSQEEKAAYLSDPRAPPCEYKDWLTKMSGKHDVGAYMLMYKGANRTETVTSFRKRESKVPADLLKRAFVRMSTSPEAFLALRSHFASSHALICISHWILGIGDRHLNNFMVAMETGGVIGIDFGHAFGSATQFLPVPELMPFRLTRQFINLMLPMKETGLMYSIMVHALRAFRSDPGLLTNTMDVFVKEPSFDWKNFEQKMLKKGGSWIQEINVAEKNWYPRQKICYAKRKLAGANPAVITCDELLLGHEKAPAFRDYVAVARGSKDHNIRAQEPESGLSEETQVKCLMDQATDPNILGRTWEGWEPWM
UniProt P12956: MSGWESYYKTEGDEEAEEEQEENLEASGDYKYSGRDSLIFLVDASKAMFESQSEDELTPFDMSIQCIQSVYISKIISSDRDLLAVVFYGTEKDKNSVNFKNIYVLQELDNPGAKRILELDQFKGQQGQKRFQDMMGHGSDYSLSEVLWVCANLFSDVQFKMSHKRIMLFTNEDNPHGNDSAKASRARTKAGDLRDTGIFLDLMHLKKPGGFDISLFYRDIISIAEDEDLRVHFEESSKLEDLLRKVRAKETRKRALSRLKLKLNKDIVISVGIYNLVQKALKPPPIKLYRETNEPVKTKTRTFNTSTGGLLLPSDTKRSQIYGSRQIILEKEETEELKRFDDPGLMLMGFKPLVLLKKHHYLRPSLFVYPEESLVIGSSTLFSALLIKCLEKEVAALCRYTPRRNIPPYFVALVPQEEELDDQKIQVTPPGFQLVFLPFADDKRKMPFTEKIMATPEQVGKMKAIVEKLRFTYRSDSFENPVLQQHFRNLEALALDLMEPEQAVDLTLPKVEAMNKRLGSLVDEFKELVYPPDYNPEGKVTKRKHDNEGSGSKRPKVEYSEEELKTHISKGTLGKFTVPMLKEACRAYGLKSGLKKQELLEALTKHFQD

Tests used:
DNA-PKcs (endogenous) = DNA-PKcs (endogenous) (UniProt P78527); assay: pull-down, immunoblot; details: DNA transfected into cells, empty vector, likely via Ku; protein in an extract; label: 3' biotin
Ku70 (endogenous) = Ku70 (endogenous) (UniProt P12956); assay: pull-down, immunoblot; details: DNA transfected into cells, empty vector; protein in an extract; label: 3' biotin

“TACAGATCTACTAGTGATCTATGACTGATCTGTACATGATCTACA (double strand) [biotinylated ISD DNA]”: binds (DNA-PKcs (endogenous)); binds (Ku70 (endogenous)).
